Source: PubChem BioAssay AID2685 (National Center for Advancing Translational Sciences (NCATS), 2010)
The other results are listed elsewhere or left out. Further columns of the screen follow, without active or inactive calls. Most of these compounds were active or inconclusive in the main read-out, so they are no random draw. The note in brackets gives the kind of curve behind each potency; many fits are weak.

Assay: qHTS Assay for Lipid Storage Modulators in Drosophila S3 Cells;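 for cell number change: cells counted by Cell Tracker Red CMTPX staining in the red channel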
Conditions: BODIPY lipid droplet fluorescence, 18-24 h; for cell number change: measured here: cell count max response, cells fed with added oleic acid
Procedure, shortened: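 Drosophila S3 cells got compounds at several concentrations plus oleic acid (400 uM solution). Laser-scanning cytometry with 488 nm excitation read lipid droplets at 500-530 nm and cells at 575-640 nm. Percent activity was relative to 20 uM Triacsin C.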

[1] = measured here: lipid fluorescence (Fed channel) AC50, cells fed with added oleic acid
[2] = measured here: cell number channel AC50, cells fed with added oleic acid

SMILES	cell number change [%]	AC50 [1]	AC50 [2]
Cc1ccc(C(=O)NCCNC(=O)CN2CCOCC2)cc1	-6.54		
Cc1cc(/C=C2/SC(=O)NC2=O)c(C)n1-c1ccc(N2CCOCC2)cc1		6.51 µM [rising, single point]	
O=C(CC(=O)c1cc(Cl)ccc1O)c1ccccc1	-154	20.6 µM [falling, single point]	20.6 µM [falling, single point]
Cn1ccc(NC(=O)c2ccc(Cl)cc2)n1	1.47	1.64 µM [falling, single point]	
O=[N+]([O-])c1ccc(CSc2ccc(S(=O)(=O)N3CCOCC3)cn2)cc1	-33.7	1.84 µM [falling, partial curve, poor fit]	20.6 µM [falling, partial curve, poor fit]
Cc1cc(C)nc(NC(=O)C(C)C)n1	-18.1	29.1 µM [falling, single point]	
NC(=O)c1nn(-c2ccccc2)nc1NC(=O)CSc1nnnn1-c1ccc(Cl)cc1	33.1	3.26 µM [rising, partial curve]	4.61 µM [rising, partial curve, poor fit]
CCCn1c(=O)[nH]c(=O)c2c1nc(-c1ccc(OC)c(Br)c1)n2CCOC	115	6.51 µM [rising, partial curve, poor fit]	8.2 µM [rising, partial curve]
O=C(Nc1cc(S(=O)(=O)N2CCOCC2)ccc1OCC(F)(F)F)C1=COCCO1			2.91 µM [rising, partial curve, poor fit]
COc1ccc([N+](=O)[O-])cc1NCC(=O)c1ccc(C)cc1		0.58 µM [falling, single point]	
CCN(CC)CCCn1c(C)cc2c(c1=O)C(c1cccc(Cl)c1)C(C#N)=C(N)O2 (configuration not stated)	-9.16	4.11 µM [falling, partial curve, poor fit]	
CC(=O)Nc1ccc(S(=O)(=O)N2CCC(NC(=O)c3ccco3)CC2)cc1	31.2		29.1 µM [rising, single point]
CCC(Oc1ccc(Br)cc1)C(=O)N1CCN(c2ncccn2)CC1 (configuration not stated)	68.3	29.1 µM [rising, partial curve]	25.9 µM [rising, partial curve, poor fit]
CCOC(=O)c1cc(NC(=O)CCC(=O)O)ccc1N1CCCCC1	-63.3	25.9 µM [falling, partial curve]	4.61 µM [falling, partial curve]
CN(C)/C=C(/C(=O)c1ccc(F)cc1)S(=O)(=O)c1ccc(F)cc1	-3.38	29.1 µM [rising, single point]	
CN(C(=O)CN1C(=O)/C(=C/c2ccccc2Cl)SC1=S)C1CCS(=O)(=O)C1 (configuration not stated)	-15.3	6.51 µM [falling, partial curve, poor fit]	
COc1ccc(C2=C/C(=C\c3cccc(OC(C)=O)c3)C(=O)O2)cc1	6.35		
Cc1ccc(NC(=O)CCS(=O)(=O)c2cccc3nonc23)cc1Cl	23.9		

Two compounds from above, showing only AC50 [1].

| SMILES | AC50 [1] |
| --- | --- |
| O=[N+]([O-])c1ccc(CSc2ccc(S(=O)(=O)N3CCOCC3)cn2)cc1 | 1.84 µM [falling, partial curve, poor fit] |
| Cc1cc(C)nc(NC(=O)C(C)C)n1 | 29.1 µM [falling, single point] |

The listing continues:

SMILES	cell number change [%]	AC50 [1]	AC50 [2]
COc1ccc(C(=O)Cc2cnn(-c3ccccc3)c2)c(O)c1	21.7	18.4 µM [rising, partial curve]	
CCCCc1ccc(NC(=O)c2ccc(N(C)S(C)(=O)=O)cc2)cc1	-3.27		
COc1ccccc1C(=O)COC(=O)CNC(=O)c1ccc(Br)o1	7.48	0.82 µM [rising, full curve]	
O=C(NCc1ccco1)c1ccccc1NS(=O)(=O)c1ccc(Cl)s1	-46.9		29.1 µM [falling, single point]
COc1ccc(CN(C)C(=O)c2ccc(OCC(=O)Nc3cccc(C(F)(F)F)c3)c(OC)c2)c(OC)c1	24.6	1.84 µM [rising, partial curve]	1.84 µM [rising, partial curve, poor fit]
CCOC(=O)c1sc2ncnc(NCC(c3cccs3)N(C)C)c2c1C (configuration not stated)	51.6		23.1 µM [rising, partial curve, poor fit]
C=CCn1c(C(C)(C)C)nc2ccccc21	-12	6.51 µM [falling, single point]	
CCn1c2ccccc2c2cc(CC(N)=O)ccc21	27.6	0.82 µM [rising, full curve, poor fit]	
CCOC(=O)CCNC(=O)Nc1ccc2nc(C)n(Cc3ccc(Cl)cc3)c(=O)c2c1	-4.62	0.517 µM [rising, full curve, poor fit]	
CCOC(=O)C1=NN(C(C)=O)C2C(=O)N(CC)C(=O)C12 (configuration not stated)	-14.6		
O=C(Cn1c(=S)[nH]c2ccccc21)c1ccccc1	77.1	23.1 µM [rising, partial curve]	20.6 µM [rising, single point]
COc1ccc(-c2cc(CC3(C(=O)O)CCN(C(=O)OC(C)(C)C)CC3)on2)c(OC)c1	46	0.164 µM [falling, full curve, poor fit]	20.6 µM [rising, partial curve]
CC1CN(C(=O)COc2ccc3c(-c4ccccc4)cc(=O)oc3c2)CC(C)O1 (configuration not stated)	-10.1	0.517 µM [falling, partial curve, poor fit]	
CC12CC3CC(C)(C1)CC(C(=O)N1CCN(C(=O)C4CCCO4)CC1)(C3)C2 (configuration not stated)	-1.66	29.1 µM [rising, single point]	
O=C(c1ccc(Cl)c(S(=O)(=O)N2CCc3ccccc3C2)c1)N1CCN(c2ccccc2)CC1	-17.7	6.51 µM [rising, single point]	
CC(=O)Nc1ccc(C(=O)N/N=C/C2CC3C=CC2C3)cc1 (configuration not stated)	-35.8	6.51 µM [falling, partial curve]	0.291 µM [falling, full curve, poor fit]
CCC(C)N1CC(=O)N2C(c3ccc(OC)cc3OC)c3[nH]c4ccccc4c3C[C@H]2C1=O (some centres not stated)	-6.94		
O=C(NNC(=O)c1cc(-c2ccc(Cl)cc2Cl)nc2ccccc12)Nc1ccccc1	-2.21		
